Laboratory results published in publication doi:10.1101/055285.
Results are given in words; binding and its absence hold for the method and conditions named. Binding seen in cells or lysates may run through a third protein. Some entries that bind do so weakly or less than the wild type. Sequences can lack the tags named with a protein. Values belong to the molecule of their own block, whether it stands above or below them.

The chains behind the UniProt entries cited, without tags or fusion partners.
UniProt Q00610: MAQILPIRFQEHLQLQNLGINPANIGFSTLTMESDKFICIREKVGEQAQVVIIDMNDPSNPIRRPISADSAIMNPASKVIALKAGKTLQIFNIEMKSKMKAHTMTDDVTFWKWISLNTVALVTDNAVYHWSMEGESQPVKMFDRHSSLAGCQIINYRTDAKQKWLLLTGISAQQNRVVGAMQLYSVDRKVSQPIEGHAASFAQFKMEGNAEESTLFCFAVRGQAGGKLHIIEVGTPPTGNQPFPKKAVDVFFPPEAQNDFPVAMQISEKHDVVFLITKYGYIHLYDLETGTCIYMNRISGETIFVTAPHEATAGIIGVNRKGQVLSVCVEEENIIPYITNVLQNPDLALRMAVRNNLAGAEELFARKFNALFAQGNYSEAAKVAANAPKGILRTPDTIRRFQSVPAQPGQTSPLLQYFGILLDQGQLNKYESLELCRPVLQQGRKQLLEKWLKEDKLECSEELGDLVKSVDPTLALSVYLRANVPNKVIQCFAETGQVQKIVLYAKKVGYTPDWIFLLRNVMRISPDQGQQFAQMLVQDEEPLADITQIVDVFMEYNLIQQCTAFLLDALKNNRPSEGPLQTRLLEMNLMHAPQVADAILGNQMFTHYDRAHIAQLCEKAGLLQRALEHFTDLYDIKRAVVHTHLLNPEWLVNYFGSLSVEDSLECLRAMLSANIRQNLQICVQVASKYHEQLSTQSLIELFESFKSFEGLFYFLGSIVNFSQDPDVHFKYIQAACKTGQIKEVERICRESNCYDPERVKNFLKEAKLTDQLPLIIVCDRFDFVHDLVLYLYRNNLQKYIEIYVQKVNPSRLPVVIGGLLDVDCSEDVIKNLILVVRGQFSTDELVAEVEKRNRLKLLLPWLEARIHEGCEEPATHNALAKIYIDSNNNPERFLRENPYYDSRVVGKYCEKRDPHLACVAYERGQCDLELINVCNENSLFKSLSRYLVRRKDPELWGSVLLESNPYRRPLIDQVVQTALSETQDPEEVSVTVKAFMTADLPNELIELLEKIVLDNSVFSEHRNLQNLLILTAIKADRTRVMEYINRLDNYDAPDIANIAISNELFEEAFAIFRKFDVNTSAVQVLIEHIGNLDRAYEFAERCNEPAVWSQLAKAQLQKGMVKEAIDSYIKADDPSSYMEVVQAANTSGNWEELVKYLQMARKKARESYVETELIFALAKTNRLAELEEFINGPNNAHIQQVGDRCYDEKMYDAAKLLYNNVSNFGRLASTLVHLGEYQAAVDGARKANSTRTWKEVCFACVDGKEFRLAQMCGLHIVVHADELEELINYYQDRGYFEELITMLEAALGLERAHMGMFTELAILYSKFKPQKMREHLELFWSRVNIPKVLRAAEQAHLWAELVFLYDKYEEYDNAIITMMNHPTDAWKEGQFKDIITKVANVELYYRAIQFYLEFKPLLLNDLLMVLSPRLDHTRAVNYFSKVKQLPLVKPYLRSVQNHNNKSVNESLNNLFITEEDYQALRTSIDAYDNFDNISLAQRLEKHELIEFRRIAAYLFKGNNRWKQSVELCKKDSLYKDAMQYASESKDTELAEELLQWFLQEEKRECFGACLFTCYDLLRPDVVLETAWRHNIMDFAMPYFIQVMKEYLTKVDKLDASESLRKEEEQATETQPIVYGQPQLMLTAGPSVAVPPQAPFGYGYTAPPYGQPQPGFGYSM

Legend:
[1] = target: T1, CLTA (clathrin light chain A), taken as the GFP11-tagged bait of the clathrin pull-down (human) (UniProt P09496); assay: co-IP
T1 sequence: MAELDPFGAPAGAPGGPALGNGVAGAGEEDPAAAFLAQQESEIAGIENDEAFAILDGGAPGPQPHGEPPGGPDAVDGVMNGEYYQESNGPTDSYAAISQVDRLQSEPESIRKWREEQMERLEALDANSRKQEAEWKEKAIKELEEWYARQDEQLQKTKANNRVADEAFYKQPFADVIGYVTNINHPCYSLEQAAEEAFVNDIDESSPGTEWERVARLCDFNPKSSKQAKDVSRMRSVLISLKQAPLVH

[2] = target: T2, SPTLC1, taken as the GFP11-tagged bait of the SPOTS pull-down (human) (UniProt O15269); assay: co-IP
T2 sequence: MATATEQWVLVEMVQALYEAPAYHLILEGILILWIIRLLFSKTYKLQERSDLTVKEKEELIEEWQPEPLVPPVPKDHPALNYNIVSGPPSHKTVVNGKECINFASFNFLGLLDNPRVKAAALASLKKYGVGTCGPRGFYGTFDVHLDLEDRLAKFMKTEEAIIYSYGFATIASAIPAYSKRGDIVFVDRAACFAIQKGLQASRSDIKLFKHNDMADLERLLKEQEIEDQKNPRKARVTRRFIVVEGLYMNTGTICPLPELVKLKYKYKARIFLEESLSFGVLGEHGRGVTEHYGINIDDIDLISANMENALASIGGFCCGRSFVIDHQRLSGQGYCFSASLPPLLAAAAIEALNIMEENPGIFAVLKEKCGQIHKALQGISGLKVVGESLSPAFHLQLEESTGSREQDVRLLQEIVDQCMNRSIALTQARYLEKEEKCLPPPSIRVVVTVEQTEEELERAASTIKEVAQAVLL

binding [1]: binds
Molecule: CLTC (from UniProt Q00610 1-1675)

binding [2]: binds
B1: SPTLC2 (protein, UniProt O15270 1-562)
chain: MRPEPGGCCCRRTVRANGCVANGEVRNGYVRSSAAAAAAAAAGQIHHVTQNGGLYKRPFNEAFEETPMLVAVLTYVGYGVLTLFGYLRDFLRYWRIEKCHHATEREEQKDFVSLYQDFENFYTRNLYMRIRDNWNRPICSVPGARVDIMERQSHDYNWSFKYTGNIIKGVINMGSYNYLGFARNTGSCQEAAAKVLEEYGAGVCSTRQEIGNLDKHEELEELVARFLGVEAAMAYGMGFATNSMNIPALVGKGCLILSDELNHASLVLGARLSGATIRIFKHNNMQSLEKLLKDAIVYGQPRTRRPWKKILILVEGIYSMEGSIVRLPEVIALKKKYKAYLYLDEAHSIGALGPTGRGVVEYFGLDPEDVDVMMGTFTKSFGASGGYIGGKKELIDYLRTHSHSAVYATSLSPPVVEQIITSMKCIMGQDGTSLGKECVQQLAENTRYFRRRLKEMGFIIYGNEDSPVVPLMLYMPAKIGAFGREMLKRNIGVVVVGFPATPIIESRARFCLSAAHTKEILDTALKEIDEVGDLLQLKYSRHRLVPLLDRPFDETTYEETED
